At least one compound was matched to its structure with a doubt left.
System: voltage-gated Ca2+ channels
Type: cell-based, human

For `COC(=O)C1=C(C)NC(C)=C(C(=O)OC)C1c1ccccc1[N+](=O)[O-]` [nifedipine], which “effect on Ttx-insensitive currents” value is on record?
Its value is “further inhibition”.

— US6372501B1, “Glucose responsive β-cell line” (Aberdeen University, priority 1997, dated 2002)
